These results are taken from patent US20260274983A1 (MODERNATX, published 2026).

By UniProt entry, the sequences of proteins in these tests, tags left out.
UniProt Q9NZD1: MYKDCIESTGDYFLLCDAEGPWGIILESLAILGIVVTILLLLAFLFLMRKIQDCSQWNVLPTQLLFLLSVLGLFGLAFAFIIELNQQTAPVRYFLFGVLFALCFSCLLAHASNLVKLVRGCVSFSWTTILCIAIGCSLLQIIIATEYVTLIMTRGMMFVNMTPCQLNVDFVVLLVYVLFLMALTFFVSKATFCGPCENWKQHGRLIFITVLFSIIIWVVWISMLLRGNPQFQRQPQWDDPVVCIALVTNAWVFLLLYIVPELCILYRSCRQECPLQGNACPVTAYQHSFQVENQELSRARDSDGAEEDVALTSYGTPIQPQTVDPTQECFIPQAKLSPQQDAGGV

Results are given in words; binding and its absence hold for the method and conditions named. Some binding calls cover weakened binding; strength is not graded here.

The target in assay [1] is T1, human GPRC5D (human, UniProt Q9NZD1 1-345).
T1 construct: whole, on cells; Human is stated only for CHO-HuGPRC5D; also called HuGPRC5D; GPRC5D on CHO-HuGPRC5D cells
The assay is described as follows: FACS binding to H929 cells, VHH-His format. In general terms: Flow cytometry measures light scatter and fluorescence of single cells or particles in a stream.

Assay [2] deals with T1, human GPRC5D. The assay is described as follows: FACS binding to CHO-huGPRC5D cells, VHH-His format.

B1: GPRC5D-VHH3-H9 (VHH)
VHH: QVQLVESGGGLVQPGGSLRLSCAASGIIFSASNLAWYRQAPGKQRELVAGVTGGGSINYADSVKGRFTISRDNAKNTIYLQMNSLRAEDTAVYYCNARRSYSHWGQGTLVTVSS
notes: Humanized variant of GPRC5D-VHH3
Take B1: the binding entry in the assay with human GPRC5D [1] and with human GPRC5D [2] was “binds” in each case.

B2: GPRC5D-VHH1-H7 (VHH)
VHH: QVQLVESGGGLVQPGGSLRLSCAASGRTVSSYAMGWFRQAPGKEREFVSAISWSGRSTYYADSMKGRFTISRDNAKNTLYLQMNSLRAEDTAVYYCATSRAVIPGRDWNYYEYWGQGTLVTVSS
notes: Humanized variant of GPRC5D-VHH1
On to B2, for which the binding result with human GPRC5D [1] and with human GPRC5D [2] was “binds” each time.
